From the supplement of paper PMC10849652
This is one part of the list.

Amino acid sequences for entries named in this document (tags omitted). A change or cut given only in a name is not applied to a line headed by its entry.
UniProt Q9NYQ8: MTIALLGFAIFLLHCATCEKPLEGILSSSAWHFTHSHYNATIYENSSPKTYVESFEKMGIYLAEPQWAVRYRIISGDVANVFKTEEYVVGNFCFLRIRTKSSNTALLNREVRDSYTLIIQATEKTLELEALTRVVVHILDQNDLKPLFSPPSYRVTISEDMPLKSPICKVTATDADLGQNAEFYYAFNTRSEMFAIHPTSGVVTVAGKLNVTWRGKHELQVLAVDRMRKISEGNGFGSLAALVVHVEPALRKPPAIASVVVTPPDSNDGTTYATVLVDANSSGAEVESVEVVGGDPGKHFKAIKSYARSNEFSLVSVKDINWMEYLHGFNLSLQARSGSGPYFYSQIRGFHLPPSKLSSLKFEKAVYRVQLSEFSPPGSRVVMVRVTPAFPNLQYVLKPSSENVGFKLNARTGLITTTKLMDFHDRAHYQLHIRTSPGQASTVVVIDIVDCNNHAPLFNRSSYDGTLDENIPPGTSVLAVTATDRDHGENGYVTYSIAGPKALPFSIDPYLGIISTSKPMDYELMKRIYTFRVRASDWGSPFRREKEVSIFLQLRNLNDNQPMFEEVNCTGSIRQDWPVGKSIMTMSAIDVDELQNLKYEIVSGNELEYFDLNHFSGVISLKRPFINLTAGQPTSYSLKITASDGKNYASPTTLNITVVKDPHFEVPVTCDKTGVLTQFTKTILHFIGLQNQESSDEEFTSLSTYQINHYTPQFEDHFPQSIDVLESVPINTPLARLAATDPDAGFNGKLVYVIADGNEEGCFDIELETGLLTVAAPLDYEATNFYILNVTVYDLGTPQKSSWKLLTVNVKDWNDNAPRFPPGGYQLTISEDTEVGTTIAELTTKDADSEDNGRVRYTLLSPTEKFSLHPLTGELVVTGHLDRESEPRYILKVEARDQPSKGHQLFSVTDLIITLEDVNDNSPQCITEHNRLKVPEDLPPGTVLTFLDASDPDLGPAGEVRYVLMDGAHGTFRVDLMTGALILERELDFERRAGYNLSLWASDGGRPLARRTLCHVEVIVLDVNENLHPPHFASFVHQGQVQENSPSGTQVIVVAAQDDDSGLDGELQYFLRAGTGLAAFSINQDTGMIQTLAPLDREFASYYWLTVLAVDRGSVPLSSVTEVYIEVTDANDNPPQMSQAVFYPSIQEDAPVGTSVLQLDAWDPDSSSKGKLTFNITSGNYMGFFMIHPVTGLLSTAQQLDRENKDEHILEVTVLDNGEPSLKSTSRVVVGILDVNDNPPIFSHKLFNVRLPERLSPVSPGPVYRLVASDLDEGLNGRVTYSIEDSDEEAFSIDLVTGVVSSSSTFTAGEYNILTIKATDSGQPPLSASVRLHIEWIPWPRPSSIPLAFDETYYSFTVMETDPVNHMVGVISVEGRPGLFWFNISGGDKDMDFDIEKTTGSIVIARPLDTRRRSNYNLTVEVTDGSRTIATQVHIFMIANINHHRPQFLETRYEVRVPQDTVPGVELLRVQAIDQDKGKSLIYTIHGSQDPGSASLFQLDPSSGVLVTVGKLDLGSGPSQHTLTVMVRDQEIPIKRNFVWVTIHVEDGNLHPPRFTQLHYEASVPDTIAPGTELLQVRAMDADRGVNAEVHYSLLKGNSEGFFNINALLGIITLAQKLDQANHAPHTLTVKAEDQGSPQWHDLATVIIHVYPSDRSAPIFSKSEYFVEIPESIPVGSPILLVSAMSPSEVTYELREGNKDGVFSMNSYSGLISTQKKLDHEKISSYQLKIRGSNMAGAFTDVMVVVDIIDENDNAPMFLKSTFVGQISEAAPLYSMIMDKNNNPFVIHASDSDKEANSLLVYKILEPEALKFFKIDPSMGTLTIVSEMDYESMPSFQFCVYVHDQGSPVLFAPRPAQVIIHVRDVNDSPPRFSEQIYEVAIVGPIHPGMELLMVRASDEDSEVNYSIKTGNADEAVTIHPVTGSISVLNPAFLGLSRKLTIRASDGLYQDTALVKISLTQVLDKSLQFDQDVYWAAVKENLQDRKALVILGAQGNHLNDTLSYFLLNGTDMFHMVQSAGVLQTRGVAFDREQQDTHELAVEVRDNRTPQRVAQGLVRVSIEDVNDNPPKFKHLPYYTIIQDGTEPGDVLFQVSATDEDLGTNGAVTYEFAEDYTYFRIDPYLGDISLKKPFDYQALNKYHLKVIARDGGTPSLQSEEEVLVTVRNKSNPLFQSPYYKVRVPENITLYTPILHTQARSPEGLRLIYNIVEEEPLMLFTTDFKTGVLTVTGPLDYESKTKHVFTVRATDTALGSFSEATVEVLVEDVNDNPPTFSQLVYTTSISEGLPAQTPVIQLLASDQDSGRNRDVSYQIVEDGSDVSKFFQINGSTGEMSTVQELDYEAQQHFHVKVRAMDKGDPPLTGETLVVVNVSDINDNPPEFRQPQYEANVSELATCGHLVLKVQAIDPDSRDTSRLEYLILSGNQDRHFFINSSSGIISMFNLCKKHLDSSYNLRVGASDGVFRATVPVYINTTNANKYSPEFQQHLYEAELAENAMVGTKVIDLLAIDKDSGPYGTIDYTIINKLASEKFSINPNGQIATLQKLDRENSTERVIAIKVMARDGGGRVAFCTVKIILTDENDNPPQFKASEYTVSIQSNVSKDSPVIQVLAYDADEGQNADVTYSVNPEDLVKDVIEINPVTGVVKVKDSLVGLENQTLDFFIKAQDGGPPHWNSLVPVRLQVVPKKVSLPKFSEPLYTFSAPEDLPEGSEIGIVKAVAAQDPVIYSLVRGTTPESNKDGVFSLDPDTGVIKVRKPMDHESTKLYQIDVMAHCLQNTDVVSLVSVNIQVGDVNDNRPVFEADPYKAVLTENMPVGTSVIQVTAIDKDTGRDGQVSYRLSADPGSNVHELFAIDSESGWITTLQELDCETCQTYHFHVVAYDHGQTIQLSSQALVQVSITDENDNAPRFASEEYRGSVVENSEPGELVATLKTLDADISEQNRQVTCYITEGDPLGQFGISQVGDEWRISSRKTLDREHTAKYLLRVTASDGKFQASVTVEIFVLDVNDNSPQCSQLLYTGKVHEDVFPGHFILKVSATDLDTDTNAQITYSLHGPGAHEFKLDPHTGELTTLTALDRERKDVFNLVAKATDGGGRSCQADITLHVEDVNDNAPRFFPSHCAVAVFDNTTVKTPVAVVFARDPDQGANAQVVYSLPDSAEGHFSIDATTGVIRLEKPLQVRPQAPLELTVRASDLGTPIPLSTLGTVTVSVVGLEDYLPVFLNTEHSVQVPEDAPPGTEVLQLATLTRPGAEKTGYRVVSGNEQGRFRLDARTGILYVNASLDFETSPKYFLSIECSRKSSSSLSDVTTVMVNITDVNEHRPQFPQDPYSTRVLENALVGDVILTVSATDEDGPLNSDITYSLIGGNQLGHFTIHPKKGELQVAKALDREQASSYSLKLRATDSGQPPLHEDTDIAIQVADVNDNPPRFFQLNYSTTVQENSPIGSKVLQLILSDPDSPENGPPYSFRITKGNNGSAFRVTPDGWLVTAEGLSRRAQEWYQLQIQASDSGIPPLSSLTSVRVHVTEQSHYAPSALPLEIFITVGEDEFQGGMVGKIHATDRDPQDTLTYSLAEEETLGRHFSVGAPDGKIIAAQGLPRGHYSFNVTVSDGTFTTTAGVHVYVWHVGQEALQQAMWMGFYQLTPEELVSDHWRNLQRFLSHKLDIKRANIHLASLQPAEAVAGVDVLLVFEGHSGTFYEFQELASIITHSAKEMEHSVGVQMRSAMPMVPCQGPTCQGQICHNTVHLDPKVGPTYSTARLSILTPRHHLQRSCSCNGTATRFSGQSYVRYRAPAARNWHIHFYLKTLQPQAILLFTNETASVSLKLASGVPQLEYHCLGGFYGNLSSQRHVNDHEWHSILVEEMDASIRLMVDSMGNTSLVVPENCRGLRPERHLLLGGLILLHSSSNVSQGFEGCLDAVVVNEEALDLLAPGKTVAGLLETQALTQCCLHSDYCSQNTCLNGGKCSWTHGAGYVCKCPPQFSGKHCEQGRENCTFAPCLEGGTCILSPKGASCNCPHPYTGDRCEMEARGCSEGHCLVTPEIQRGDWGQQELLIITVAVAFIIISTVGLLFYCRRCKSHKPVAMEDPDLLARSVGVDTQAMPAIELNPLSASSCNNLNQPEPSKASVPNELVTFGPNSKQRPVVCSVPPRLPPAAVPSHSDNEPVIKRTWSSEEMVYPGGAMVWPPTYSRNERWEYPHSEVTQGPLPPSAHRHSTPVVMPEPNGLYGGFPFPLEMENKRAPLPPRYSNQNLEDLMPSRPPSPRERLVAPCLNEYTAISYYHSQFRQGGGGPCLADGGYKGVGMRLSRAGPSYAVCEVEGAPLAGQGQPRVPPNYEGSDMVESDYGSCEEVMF
UniProt P02675: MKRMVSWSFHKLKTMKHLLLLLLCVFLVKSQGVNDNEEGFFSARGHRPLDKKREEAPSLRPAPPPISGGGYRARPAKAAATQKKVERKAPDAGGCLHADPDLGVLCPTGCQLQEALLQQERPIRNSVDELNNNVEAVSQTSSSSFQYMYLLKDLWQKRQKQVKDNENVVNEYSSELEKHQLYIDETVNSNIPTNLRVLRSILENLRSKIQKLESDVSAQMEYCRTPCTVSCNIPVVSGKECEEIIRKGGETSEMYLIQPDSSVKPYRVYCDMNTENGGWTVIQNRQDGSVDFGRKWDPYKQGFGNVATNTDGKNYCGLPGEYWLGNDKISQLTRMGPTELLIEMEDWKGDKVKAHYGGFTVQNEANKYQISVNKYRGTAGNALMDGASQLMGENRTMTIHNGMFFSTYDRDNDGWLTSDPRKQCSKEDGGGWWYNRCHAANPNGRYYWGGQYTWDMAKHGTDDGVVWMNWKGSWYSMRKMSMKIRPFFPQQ
UniProt Q9NVK5: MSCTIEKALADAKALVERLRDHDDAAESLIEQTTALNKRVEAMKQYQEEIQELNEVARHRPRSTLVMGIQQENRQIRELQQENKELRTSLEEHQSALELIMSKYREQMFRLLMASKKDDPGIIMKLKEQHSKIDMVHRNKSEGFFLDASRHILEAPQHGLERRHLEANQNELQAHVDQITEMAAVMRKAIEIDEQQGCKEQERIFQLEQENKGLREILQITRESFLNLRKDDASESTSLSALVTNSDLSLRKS
UniProt Q8WU58: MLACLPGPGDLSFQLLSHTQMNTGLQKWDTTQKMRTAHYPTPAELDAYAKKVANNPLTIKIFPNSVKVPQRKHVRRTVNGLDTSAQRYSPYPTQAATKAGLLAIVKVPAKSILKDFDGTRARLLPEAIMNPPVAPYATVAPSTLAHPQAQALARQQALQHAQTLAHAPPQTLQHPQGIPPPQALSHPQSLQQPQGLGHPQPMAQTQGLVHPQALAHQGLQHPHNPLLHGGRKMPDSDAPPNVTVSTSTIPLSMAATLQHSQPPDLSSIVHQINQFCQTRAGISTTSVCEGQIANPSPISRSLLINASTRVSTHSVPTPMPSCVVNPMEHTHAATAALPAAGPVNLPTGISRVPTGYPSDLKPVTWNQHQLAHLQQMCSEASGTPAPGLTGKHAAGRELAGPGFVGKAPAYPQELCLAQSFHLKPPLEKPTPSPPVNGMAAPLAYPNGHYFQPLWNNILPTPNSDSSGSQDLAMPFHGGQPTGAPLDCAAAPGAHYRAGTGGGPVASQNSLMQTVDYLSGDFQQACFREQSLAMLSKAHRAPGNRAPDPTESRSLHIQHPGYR
UniProt Q86XK2: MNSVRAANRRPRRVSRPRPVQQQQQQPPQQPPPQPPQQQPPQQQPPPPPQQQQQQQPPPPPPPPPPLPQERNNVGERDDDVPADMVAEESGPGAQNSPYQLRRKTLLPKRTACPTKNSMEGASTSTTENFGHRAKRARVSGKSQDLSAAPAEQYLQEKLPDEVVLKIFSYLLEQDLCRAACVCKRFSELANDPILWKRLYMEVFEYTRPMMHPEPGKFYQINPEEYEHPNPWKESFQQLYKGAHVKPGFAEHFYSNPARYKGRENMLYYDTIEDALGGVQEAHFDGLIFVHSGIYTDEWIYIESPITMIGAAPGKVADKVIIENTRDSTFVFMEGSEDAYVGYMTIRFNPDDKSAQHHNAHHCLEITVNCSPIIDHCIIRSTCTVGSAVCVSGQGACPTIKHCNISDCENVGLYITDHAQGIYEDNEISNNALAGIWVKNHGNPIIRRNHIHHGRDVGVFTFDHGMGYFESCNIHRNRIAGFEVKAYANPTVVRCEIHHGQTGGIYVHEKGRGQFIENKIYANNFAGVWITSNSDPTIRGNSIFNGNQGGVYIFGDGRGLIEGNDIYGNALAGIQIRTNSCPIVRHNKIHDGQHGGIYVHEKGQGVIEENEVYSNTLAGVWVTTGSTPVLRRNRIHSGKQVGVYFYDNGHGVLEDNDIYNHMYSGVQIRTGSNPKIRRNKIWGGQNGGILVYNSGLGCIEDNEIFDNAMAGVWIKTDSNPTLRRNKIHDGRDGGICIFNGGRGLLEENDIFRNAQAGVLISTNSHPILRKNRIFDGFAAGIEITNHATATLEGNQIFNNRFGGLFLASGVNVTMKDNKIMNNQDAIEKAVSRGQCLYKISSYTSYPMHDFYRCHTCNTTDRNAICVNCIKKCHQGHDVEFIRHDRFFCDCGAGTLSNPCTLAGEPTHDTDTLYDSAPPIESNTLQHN

Compound: CCCS(=O)(=O)Nc1ccc(F)c(C(=O)c2c[nH]c3ncc(-c4ccc(Cl)cc4)cc23)c1F [vemurafenib]
Experiment: log2 fold change, soluble protein after heating vs DMSO (PISA); higher = thermal stabilisation; K562 cells, 10 uM, 30 min; active = over 0.2 and 3.5 SD of the protein, either way, in both replicates (recomputed)
Procedure, shortened: (§1)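 K562 cells at 2×10^6 cells/mL were treated with 10 μM compound for 30 min. Aliquots were heated for 3 min across 48°C-58°C, pooled, and extracted in PBS with 0.5% NP-40 at 4°C; soluble protein was the supernatant after 21,000xg for 90 min. Soluble protein was quantified by TMTpro 16plex LC-MS/MS with channel sums equalised, and reported as log2 fold change in thermal stability against DMSO controls, with values from duplicates.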

log2 fold change, inactive:
FAM53B (UniProt Q14153) 0.056, FAM83G (UniProt A6ND36) -0.035, FAT4 (UniProt Q6V0I7) -0.235, FER (UniProt P16591) -0.018, FANCL isoform 2 (UniProt Q9NW38) 0.185, FAT2 (UniProt Q9NYQ8) -0.002, FGGY isoform 3 (UniProt Q96C11) 0.09, FLT1 (UniProt P17948) -0.231, FIZ1 (UniProt Q96SL8) 0.13, FHAD1 isoform 3 (UniProt B1AJZ9) 0.023, FBXL4 (UniProt Q9UKA2) -0.021, FAM76A isoform 3 (UniProt Q8TAV0) -0.028, FARP2 (UniProt O94887) -0.12, FBXO9 (UniProt Q9UK97) 0, FGB (UniProt P02675) 0.154, FHL1 isoform 4 (UniProt Q13642) -0.162, FGFR1OP2 (UniProt Q9NVK5) 0.04, FBXW11 (UniProt Q9UKB1) -0.137, FBRS (UniProt J3KNZ9) 0.074

Compound: CCCS(=O)(=O)Nc1ccc(F)c(C(=O)c2c[nH]c3ncc(Cl)cc23)c1F
Experiment: as above
Procedure, shortened: as §1

log2 fold change, inactive:
FGG (UniProt P02679) -0.214, FAM222B (UniProt Q8WU58) -0.039, FAT2 (UniProt Q9NYQ8) 0.009, FGGY isoform 3 (UniProt Q96C11) -0.064, FLT1 (UniProt P17948) -0.256, FIG4 (UniProt Q92562) 0.026, FAM219B (UniProt Q5XKK7) -0.155, FHAD1 isoform 3 (UniProt B1AJZ9) -0.264, FNIP1 (UniProt Q8TF40) -0.286, FAM76A isoform 3 (UniProt Q8TAV0) -0.017, FARP2 (UniProt O94887) -0.241, FGFR1OP2 isoform 2 (UniProt Q9NVK5) 0.028, FBXO9 (UniProt Q9UK97) 0.061, FHL1 isoform 4 (UniProt Q13642) -0.074, FBXO11 isoform 5 (UniProt Q86XK2) -0.175, FBXW11 (UniProt Q9UKB1) -0.016, FBRS (UniProt J3KNZ9) -0.092, FAM219A (UniProt Q8IW50) -0.033

Compound: CCCc1cc(C)[nH]c(=O)c1CNC(=O)c1cc(-c2ccnc(N3CCN(C)CC3)c2)cc2c1cnn2C(C)C
Experiment: as above
Procedure, shortened: as §1

log2 fold change, inactive:
FAM53B (UniProt Q14153) 0.144, FAM222B (UniProt Q8WU58) -0.119, FAT4 (UniProt Q6V0I7) -0.085, FAT2 (UniProt Q9NYQ8) -0.333, FGGY isoform 3 (UniProt Q96C11) 0.116, FIZ1 (UniProt Q96SL8) -0.022, FAM219B (UniProt Q5XKK7) 0.051, FNIP1 (UniProt Q8TF40) -0.007, FBXL4 (UniProt Q9UKA2) -0.023, FBXO9 (UniProt Q9UK97) 0.052, FITM2 (UniProt Q8N6M3) -0.2, FGB (UniProt P02675) -0.239, FBXO11 isoform 5 (UniProt Q86XK2) -0.008, FGFR1OP2 (UniProt Q9NVK5) -0.076, FAM219A (UniProt Q8IW50) -0.058, FAM98C (UniProt Q17RN3) -0.04

Compound: CCN(CC)Cc1ccc2cc(COC(=O)Nc3ccc(C(=O)NO)cc3)ccc2c1 [givinostat]
Experiment: as above
Procedure, shortened: as §1

log2 fold change, inactive:
FAM53B (UniProt Q14153) 0.126, FAM222B (UniProt Q8WU58) -0.045, FER (UniProt P16591) 0.483, FAT2 (UniProt Q9NYQ8) 0.119, FGGY isoform 3 (UniProt Q96C11) -0.016, FGL2 (UniProt Q14314) 0.098, FIG4 (UniProt Q92562) -0.062, FBXL8 (UniProt Q96CD0) 0.034, FNIP1 (UniProt Q8TF40) 0.116, FAM76A isoform 3 (UniProt Q8TAV0) -0.033, FBXO9 (UniProt Q9UK97) 0.111, FITM2 (UniProt Q8N6M3) 0.051, FGB (UniProt P02675) -0.008, FHL1 isoform 4 (UniProt Q13642) -0.015, FBXO11 isoform 5 (UniProt Q86XK2) 0.112, FGFR1OP2 (UniProt Q9NVK5) 0.08, FBXW11 (UniProt Q9UKB1) 0.024, FAM219A (UniProt Q8IW50) 0.029, FBRSL1 (UniProt Q9HCM7) 0.239
